Measurements: patent US20230278987A1, “Antimicrobial Compounds and Methods” (Curza Global, LLC, priority 2019, published 2023)
pIC50: −log10 of the molar value. Structures can show the parent of a compound that is named as a salt. For at least one compound, name, drawing or mass did not settle the structure.

Columns and labels:
[1] = test system: E.coli S30 extract (bacterial protein synthesis); test: E.coli S30 extract: inhibition of bacterial protein synthesis (luciferase); assay type: biochemical; settings: 37° C. for 1 hour
Description: E.coli S30 extract: Inhibition of bacterial protein synthesis was determined using the E.coli S30 Extract System for Circular DNA (Promega catalog #L-2010) and Luciferase Assay Reagent (Promega catalog #E1500) with slight modifications to a published protocol. Fyfe, C., Sutcliffe, J.A. and Grossman, T.H. (2012) “Development and characterization of a Pseudomonas aeruginosa in vitro coupled transcription-translation assay system for evaluation of translation inhibitors” J. Microbiol. Methods 90(3), 256-261.
Compounds were serial diluted in 0.5 mL microcentrifuge tubes by mixing and transferring 50 µL from the highest concentration to 50 µL of water, mixing and transferring 50 µL of this 2-fold dilution to 50 µL of water. This mixing and transferring was repeated so that there are a total of 8 tubes with serial dilutions of compound at 10× the desired screening concentration that are ultimately diluted to 1× by the addition of S30 luciferase synthesis mixture. Serial dilutions of compounds were added (2 µL) to wells in a black round bottom 96-well plate. Water (2 µL) was used as a “no inhibitor” control in 4 wells/plate. No DNA control reaction mixture (20 µL; see below) was used as a control in 4 wells/plate for background luminescence. S30 luciferase synthesis mixture (18 µL; see below) was added to wells with compounds or water mixture and incubated at 37° C. for 1 hour. Reactions were stopped by transferring to 4° C. refrigerator for 5 minutes then 25 µL of luciferase activity mix was added. Luminescence was measured using a BioTek Synergy HTX plate reader. % Inhibition was determined relative to no inhibitor controls.
S30 luciferase synthesis mixture: • 445 µL S30 extract, circular • 712 µL S30 Premix without amino acids • 4.45 µL pBESTluc™ DNA (1 µg/ µL) • 78 µL complete amino acid mixture • 267 µL water
No DNA control: • 20 µL S30 extract, circular • 32 µL S30 Premix without amino acids • 7 µL complete amino acid mixture • 21 µL water

[2] = target: Rabbit Reticulocyte Lysate (eukaryotic protein synthesis); test: Rabbit Reticulocyte Lysate: inhibition of eukaryotic protein synthesis (luciferase); assay type: biochemical; settings: 30° C. for 90 minutes, read-out: retic. IC50
Description: Inhibition of eukaryotic protein synthesis was determined using the Rabbit Reticulocyte Lysate System, Nuclease-Treated from Promega (catalog #L-4960) with slight modifications to the manufacturer’s protocol. Compounds were serial diluted in 0.5 mL microcentrifuge tubes by mixing and transferring 50 µL from the highest concentration to 50 µL of water, mixing and transferring 50 µL of this 2-fold dilution to 50 µL of water. This mixing and transferring was repeated so that there are a total of 8 tubes with serial dilutions of compound at 10× the desired screening concentration that are ultimately diluted to 1× by the addition of rabbit reticulocyte luciferase synthesis mixture. Serial dilutions of compounds were added (2.5 µL) to wells in a black round bottom 96-well plate. Water (2.5 µL) was used as a “no inhibitor” control in 4 wells/plate. No RNA control reaction mixture (2 µL; see below) was used as a control in 4 wells/plate for background luminescence. Rabbit reticulocyte luciferase synthesis mixture (22.5 µL; see below) was added to wells with compounds or water mixture and incubated at 30° C. for 90 minutes. Luciferase assay reagent (25 µL) was added with luminescence measured using a BioTek Synergy HTX plate reader. % Inhibition was determined relative to no inhibitor controls.
Rabbit reticulocyte luciferase synthesis mixture: • 1,000 µL rabbit reticulocyte lysate • 5.7 µL Luciferase Control RNA (1 µg/ µL) • 26 µL complete amino acid mixture • 395 µL water
No RNA Control • 70 µL rabbit reticulocyte lysate • 2 µL complete amino acid mixture • 28 µL water

Row | Structure (SMILES) | pIC50 [1] | pIC50 [2]
1 | C[C@](N)(CO)C(=O)N1CCN(C(=O)Nc2ccn(-c3ccc4c(c3)CCC(N[C@H]3CC[C@H](N)C3)C4)c(=O)n2)CC1 (stereo partly drawn) [Compound 24, Hydrochloride Salt] | > 6.30 | ≤ 6.00
2 | CC(C)(N)C(=O)N1CCN(C(=O)Nc2ccn(-c3ccc4c(c3)CCC(N[C@H]3C[C@H](CN)C3)C4)c(=O)n2)CC1 (stereo partly drawn) [Compound 41, Hydrochloride Salt] | > 6.30 | ≤ 6.00
3 | CC(C)(N)C(=O)N1CCN(C(=O)Nc2ccn(-c3ccc4c(c3)CCC(N[C@H]3C[C@@H](CN)C3)C4)c(=O)n2)CC1 (stereo partly drawn) [Compound 44, Hydrochloride Salt] | ≤ 6.00 | ≤ 6.00
